Reference: PubChem BioAssay AID652272 (Drosophila RNAi Screening Center, 2013)

- Purpose: 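Finding fly genes that regulate Hedgehog signal transduction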 (primary screen)
- Cells: Drosophila clone 8 (Cl8) cells
- Reagent: long dsRNA against Drosophila genes
- Measurement: 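Firefly light from a Hedgehog-responsive ptc promoter reporter and Renilla reference light, both read on a plate reader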
- Scale: firefly Hh reporter signal: higher = more ptc reporter light; Renilla reference signal: higher = more Renilla control light
- Call rule: 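Hit when the z-score averaged over two replicates is under -2 or over +3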
- Meaning of the calls: active = hit: reporter lowered or raised; inactive = not a hit
In all, the deposit lists about 21,000 reagents; shown is an unselected part of those that have a named target and a result. Over the whole deposit, 503 (2.4%) were called active. 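Raw plate light values, not normalised; calls rest on replicate z-scores that were not deposited; hits include reporter decreases as well as increases.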 Unmarked entries are inactive. Reagents against one gene are numbered here. Not stated in the record: the amount of reagent, the time to read-out.

The opening 3 records, to show the layout:
{"gene": "CG17028", "dsRNA no.": 1, "firefly Hh reporter signal, replicate 1": 1.27e5, "Renilla reference signal, replicate 1": 1895, "Renilla reference signal, replicate 2": 3660}
{"gene": "CG31937", "dsRNA no.": 1, "firefly Hh reporter signal, replicate 1": 1.34e5, "firefly Hh reporter signal, replicate 2": 1.33e5, "Renilla reference signal, replicate 1": 5751, "Renilla reference signal, replicate 2": 4827}
{"gene": "CG15625", "dsRNA no.": 1, "firefly Hh reporter signal, replicate 1": 1.28e5, "firefly Hh reporter signal, replicate 2": 52806, "Renilla reference signal, replicate 1": 3650, "Renilla reference signal, replicate 2": 5544}

The list itself, from the start:
{"gene": "CG17028", "dsRNA no.": 1, "firefly Hh reporter signal, replicate 1": 1.27e5, "Renilla reference signal, replicate 1": 1895, "Renilla reference signal, replicate 2": 3660}
{"gene": "CG31937", "dsRNA no.": 1, "firefly Hh reporter signal, replicate 1": 1.34e5, "firefly Hh reporter signal, replicate 2": 1.33e5, "Renilla reference signal, replicate 1": 5751, "Renilla reference signal, replicate 2": 4827}
{"gene": "CG15625", "dsRNA no.": 1, "firefly Hh reporter signal, replicate 1": 1.28e5, "firefly Hh reporter signal, replicate 2": 52806, "Renilla reference signal, replicate 1": 3650, "Renilla reference signal, replicate 2": 5544}
{"gene": "kek1", "dsRNA no.": 1, "firefly Hh reporter signal, replicate 1": 1.11e5, "firefly Hh reporter signal, replicate 2": 47044, "Renilla reference signal, replicate 1": 3104, "Renilla reference signal, replicate 2": 4305}
{"gene": "eIF5", "dsRNA no.": 1, "firefly Hh reporter signal, replicate 1": 64103, "firefly Hh reporter signal, replicate 2": 65945, "Renilla reference signal, replicate 1": 2284, "Renilla reference signal, replicate 2": 2107}
{"gene": "Gbp3", "dsRNA no.": 1, "firefly Hh reporter signal, replicate 1": 5.50e5, "firefly Hh reporter signal, replicate 2": 73508, "Renilla reference signal, replicate 1": 28490, "Renilla reference signal, replicate 2": 2520}
{"gene": "CG34025", "dsRNA no.": 1, "firefly Hh reporter signal, replicate 1": 96712, "firefly Hh reporter signal, replicate 2": 1.99e5, "Renilla reference signal, replicate 1": 2621, "Renilla reference signal, replicate 2": 8561}
{"gene": "CG6614", "dsRNA no.": 1, "firefly Hh reporter signal, replicate 1": 97275, "firefly Hh reporter signal, replicate 2": 57259, "Renilla reference signal, replicate 1": 4112, "Renilla reference signal, replicate 2": 2852}
{"gene": "CG17564", "dsRNA no.": 1, "firefly Hh reporter signal, replicate 1": 73341, "firefly Hh reporter signal, replicate 2": 58569, "Renilla reference signal, replicate 1": 1738, "Renilla reference signal, replicate 2": 4748}
{"gene": "NHP2", "dsRNA no.": 1, "firefly Hh reporter signal, replicate 1": 50941, "Renilla reference signal, replicate 1": 4080, "Renilla reference signal, replicate 2": 1846}
{"gene": "Pfdn6", "dsRNA no.": 1, "firefly Hh reporter signal, replicate 1": 1.42e5, "firefly Hh reporter signal, replicate 2": 1.52e5, "Renilla reference signal, replicate 1": 5073, "Renilla reference signal, replicate 2": 4260}
{"gene": "CG32548", "dsRNA no.": 1, "firefly Hh reporter signal, replicate 1": 90162, "firefly Hh reporter signal, replicate 2": 3.30e5, "Renilla reference signal, replicate 1": 1560, "Renilla reference signal, replicate 2": 11590}
{"gene": "CG32548", "dsRNA no.": 2, "firefly Hh reporter signal, replicate 1": 1.10e5, "firefly Hh reporter signal, replicate 2": 79232, "Renilla reference signal, replicate 1": 2736, "Renilla reference signal, replicate 2": 2114}
{"gene": "CG14492", "dsRNA no.": 1, "firefly Hh reporter signal, replicate 1": 52992, "firefly Hh reporter signal, replicate 2": 54547, "Renilla reference signal, replicate 1": 992, "Renilla reference signal, replicate 2": 4057}
{"gene": "sNPF", "dsRNA no.": 1, "firefly Hh reporter signal, replicate 1": 94474, "firefly Hh reporter signal, replicate 2": 55091, "Renilla reference signal, replicate 1": 2412, "Renilla reference signal, replicate 2": 4997}
{"gene": "dyw", "dsRNA no.": 1, "firefly Hh reporter signal, replicate 1": 61572, "firefly Hh reporter signal, replicate 2": 2.06e5, "Renilla reference signal, replicate 1": 1841, "Renilla reference signal, replicate 2": 8187}
{"gene": "CG3815", "dsRNA no.": 1, "firefly Hh reporter signal, replicate 1": 1.36e5, "firefly Hh reporter signal, replicate 2": 1.01e5, "Renilla reference signal, replicate 1": 3360, "Renilla reference signal, replicate 2": 2433}
{"gene": "CG14445", "dsRNA no.": 1, "firefly Hh reporter signal, replicate 1": 81753, "firefly Hh reporter signal, replicate 2": 2.12e5, "Renilla reference signal, replicate 1": 2424, "Renilla reference signal, replicate 2": 6738}
{"gene": "CG4972", "dsRNA no.": 1, "firefly Hh reporter signal, replicate 1": 1.04e5, "firefly Hh reporter signal, replicate 2": 43992, "Renilla reference signal, replicate 1": 2809, "Renilla reference signal, replicate 2": 4259}
{"gene": "CG7568", "dsRNA no.": 1, "firefly Hh reporter signal, replicate 1": 1.20e5, "firefly Hh reporter signal, replicate 2": 95392, "Renilla reference signal, replicate 1": 4273, "Renilla reference signal, replicate 2": 2531}
{"gene": "CG14294", "dsRNA no.": 1, "firefly Hh reporter signal, replicate 1": 7.40e5, "firefly Hh reporter signal, replicate 2": 1.50e5, "Renilla reference signal, replicate 1": 34476, "Renilla reference signal, replicate 2": 4313}
{"gene": "CG10383", "dsRNA no.": 1, "firefly Hh reporter signal, replicate 1": 96892, "firefly Hh reporter signal, replicate 2": 83467, "Renilla reference signal, replicate 1": 4373, "Renilla reference signal, replicate 2": 4055}
{"gene": "Nepl8", "dsRNA no.": 1, "firefly Hh reporter signal, replicate 1": 1.28e5, "firefly Hh reporter signal, replicate 2": 63047, "Renilla reference signal, replicate 1": 3365, "Renilla reference signal, replicate 2": 3616}
{"gene": "Sf3b2", "dsRNA no.": 1, "firefly Hh reporter signal, replicate 1": "40371 (active)", "firefly Hh reporter signal, replicate 2": 26625, "Renilla reference signal, replicate 1": 3538, "Renilla reference signal, replicate 2": 2291}
{"gene": "Fibp", "dsRNA no.": 1, "firefly Hh reporter signal, replicate 1": 76630, "firefly Hh reporter signal, replicate 2": 71472, "Renilla reference signal, replicate 1": 3485, "Renilla reference signal, replicate 2": 3197}
{"gene": "CG42826", "dsRNA no.": 1, "firefly Hh reporter signal, replicate 1": 49394, "firefly Hh reporter signal, replicate 2": 88688, "firefly Hh reporter signal, replicate 3": 62849, "Renilla reference signal, replicate 1": 6441, "Renilla reference signal, replicate 2": 3826}
{"gene": "SdhC", "dsRNA no.": 1, "firefly Hh reporter signal, replicate 1": 91896, "firefly Hh reporter signal, replicate 2": 1.62e5, "Renilla reference signal, replicate 1": 1489, "Renilla reference signal, replicate 2": 4789}
